Test [1] has as its target T1, Sec17 (yeast α-SNAP) (S. cerevisiae) (UniProt P32602).
T1 sequence: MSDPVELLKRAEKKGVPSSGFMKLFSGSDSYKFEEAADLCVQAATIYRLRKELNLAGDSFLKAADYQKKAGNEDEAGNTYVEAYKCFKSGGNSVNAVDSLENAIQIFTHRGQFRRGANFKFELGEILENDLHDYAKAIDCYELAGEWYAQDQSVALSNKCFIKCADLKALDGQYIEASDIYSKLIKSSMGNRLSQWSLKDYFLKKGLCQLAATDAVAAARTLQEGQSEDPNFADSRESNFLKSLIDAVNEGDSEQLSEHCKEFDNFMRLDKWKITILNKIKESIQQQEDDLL
The test can be described thus: two-hybrid; growth spot assay in yeast PJ69-4A; NSF as Gal4 AD fusion (prey, pGAD424), α-SNAP as Gal4 BD fusion (bait, pGBT9); YCM plates LTH with 2.5 mM 3-AT and LTA, 30 °C, 2 to 3 days.

For test [2], the target named is T1, Sec17 (yeast α-SNAP) (S. cerevisiae). The test can be described thus: two-hybrid; quantitative β-galactosidase (LacZ reporter) activity of the PJ69-4A transformants, ONPG hydrolysis; NSF as AD fusion, α-SNAP as BD fusion.

These are yes or no findings as the source states them, for the method shown. Some entries that bind do so weakly or less than the wild type.

B1: Sec18 (yeast NSF) (protein, UniProt P18759 1-758)
chain: MFKIPGFGKAAANHTPPDMTNMDTRTRHLKVSNCPNNSYALANVAAVSPNDFPNNIYIIIDNLFVFTTRHSNDIPPGTIGFNGNQRTWGGWSLNQDVQAKAFDLFKYSGKQSYLGSIDIDISFRARGKAVSTVFDQDELAKQFVRCYESQIFSPTQYLIMEFQGHFFDLKIRNVQAIDLGDIEPTSAVATGIETKGILTKQTQINFFKGRDGLVNLKSSNSLRPRSNAVIRPDFKFEDLGVGGLDKEFTKIFRRAFASRIFPPSVIEKLGISHVKGLLLYGPPGTGKTLIARKIGTMLNAKEPKIVNGPEILSKYVGSSEENIRNLFKDAEAEYRAKGEESSLHIIIFDELDSVFKQRGSRGDGTGVGDNVVNQLLAKMDGVDQLNNILVIGMTNRKDLIDSALLRPGRFEVQVEIHLPDEKGRLQIFDIQTKKMRENNMMSDDVNLAELAALTKNFSGAEIEGLVKSASSFAINKTVNIGKGATKLNTKDIAKLKVTREDFLNALNDVTPAFGISEEDLKTCVEGGMMLYSERVNSILKNGARYVRQVRESDKSRLVSLLIHGPAGSGKTALAAEIALKSGFPFIRLISPNELSGMSESAKIAYIDNTFRDAYKSPLNILVIDSLETLVDWVPIGPRFSNNILQMLKVALKRKPPQDRRLLIMTTTSAYSVLQQMDILSCFDNEIAVPNMTNLDELNNVMIESNFLDDAGRVKVINELSRSCPNFNVGIKKTLTNIETARHDEDPVNELVELMTQSA
On to B1, for which the binding entry in test [1] and in test [2] was “binds” in each case.

The record behind these values is publication PMC6172762.
